Data from PubChem BioAssay AID1794845 (National Center for Advancing Translational Sciences (NCATS), 2023).
The campaign covered roughly 6,900 compounds. Fewer than 10 were called active. Calls come from the whole dose curve; as a rule, active = well fitted curve in the direction sought with a large enough effect; inconclusive = small, poorly fitted or top-dose-only effect, or another doubt; inactive = no such curve, though single readings can be large or run the other way. The list shows a part of the results.

Amino acid sequences for entries named in this document (tags omitted). A change or cut given only in a name is not applied to a line headed by its entry.
UniProt C7C422: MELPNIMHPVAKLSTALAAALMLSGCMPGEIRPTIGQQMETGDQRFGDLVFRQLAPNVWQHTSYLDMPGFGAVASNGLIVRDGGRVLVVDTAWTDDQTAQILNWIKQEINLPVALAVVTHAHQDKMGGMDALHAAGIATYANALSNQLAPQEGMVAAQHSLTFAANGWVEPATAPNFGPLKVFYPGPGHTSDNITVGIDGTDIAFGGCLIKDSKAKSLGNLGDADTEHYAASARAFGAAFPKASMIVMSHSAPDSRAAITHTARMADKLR

These compounds were tested against Metallo-beta-lactamase type 2 (Klebsiella pneumoniae) (UniProt C7C422) (assay: qHTS to identify inhibitors of the New Delhi Metallo-beta-lactamase (NDM): primary screen against the NCATS Gemini Collection). Conditions: NDM-1 enzyme, meropenem hydrolysis, absorbance 300 nm; at 38.4 µM (top of the series) unless noted.
Procedure, shortened: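 NDM-1 at 2 nM final in 50 mM HEPES pH 7.0, 1 uM ZnSO4, 0.01% Tween20, preincubated >30 min with compound. Meropenem 50 uM final added; absorbance at 300 nm after 30 min.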
Note: % of control where 0% means no effect.

Activity % (negative = inhibition), inactive:
Cc1cnc(C2CC2)n1CC1CCNCC1 5.33%, CN(C)C[C@@H]1CN(C)C[C@H]1NC(=O)NCc1ccc(OC(F)(F)F)cc1 -1.09%, COc1ccccc1-c1cc(C(=O)N2CCN(c3ncccn3)CC2)nn2cccc12 14.1%, COC(=O)[C@H](NC(=O)[C@@H]1[C@@H](NC(=O)Nc2ccc(F)cc2F)CCN1C(=O)CSC)C(C)C 7.45%, Cc1cnc(C(=O)N2CCC3(CC2)C(=O)N(c2cccc(F)c2)C3c2ccccc2)cn1 (stereo not drawn) 0.971%, O=C(c1nc2ncccn2n1)N1CCCn2cc(-c3ccccc3)nc21 12.8%, CS(=O)(=O)N(Cc1cccnc1)C1CN(C(=O)C2CCCCC2)C1 -1.01%, Cn1ccc(C(=O)NCc2nnc3n2C(C(=O)N2CCN(c4ncccn4)CC2)CC3)n1 (stereo not drawn) 2.41%, O=C(c1csc2nc(-c3ccc(F)cc3)cn12)N1C[C@H]2CC[C@@H](C1)N2 16.7%, COc1ccc2ccc(OCc3nc(C(=O)N4CCCNC(=O)C4)co3)cc2c1 21.1%, CCc1ccccc1CN1CCCC2(Cc3ccccc3CNC2=O)C1 (stereo not drawn) 0.764%, COCCCn1c(=O)[nH]c2cccnc21 -1.3% [at 77.1 µM], CNC(=O)CCn1ncc2cc(OCc3ccccc3-c3ccc(F)c(Cl)c3)ccc21 0.373% [at 57.5 µM], CNc1cc(C)nc(N2CC[C@H](N3CCOCC3)[C@H](CCC(=O)O)C2)n1 -4.91%, O=C(NC1CCCC1)C1c2ccccc2C(=O)N(C2CCCC2)C12CCCCC2 (stereo not drawn) -0.894%, COCCN1CCC(CN(Cc2ccncc2)C(=O)C2CC23CCCC3)CC1 (stereo not drawn) 0.425%, CC(=O)NC1(C)CCN(Cc2ccc(-c3ccc([S+](C)(=O)[O-])cc3)cc2)C1 (stereo not drawn) 1.76% [at 57.5 µM], c1ccc(CC2=NOC3(CCN(Cc4c[nH]c5ccccc45)CC3)C2)cc1 27.1%, COCc1ccc2c(c1)c(OC(C)(C)C(=O)N1CCN(C)CC1)nn2CCC(C)C 10.7% [at 57.5 µM], O=C(CCc1conc1-c1ccccc1F)NCc1ccc(Cl)cc1 1.02%, C=CCc1cc(-c2c(-c3ccccc3)ncn2CCOCCO)cc(OC)c1O -0.34%, CC(O)CN1CC2(CCC1=O)CCN(Cc1cncn1C)CC2 (stereo not drawn) 38.1%, Cc1ccccc1CNC(=O)c1ccc2c(c1)C(O)CCCCCN2C (stereo not drawn) 1.89%, CCOc1ccc(CC(=O)N2CCC[C@H]2c2nc(-c3ccc(OC)cc3)no2)cc1 -1.43%, Cc1ccc(CN2CC(Cn3c(C)cnc3-c3ccncc3)C2)o1 9.48%, O=C(CC1CCCC1)N1CCC(Nc2cccnc2)C1 (stereo not drawn) 79.7%, COc1cccc(-c2nnnn2[C@H]2CO[C@H]3[C@@H]2OC[C@@H]3NC(=O)c2ccccc2)c1 -9.9% [at 57.5 µM], NC(=O)[C@@H](Cc1c[nH]c2ccccc12)NC(=O)C1=C[C@@H](NS(=O)(=O)c2cccs2)[C@@H](O)[C@H](O)C1 1.76%, Cc1ccc2nc(NC(=O)Cn3nc4c(cc3=O)CCCCC4)sc2c1 13.2%, COc1cccc(-c2nc3cc(SC)ccc3cc2CN(C)Cc2ccno2)c1 25.6%, Cc1noc([C@H]2CCN(C(=O)NCc3ccccc3)C[C@H]2NC(=O)C2CCOCC2)n1 8.15%, Cc1nc(CN2CCCC(c3[nH]ncc3Cc3ccccc3)C2)co1 (stereo not drawn) -11.8%, O=C(COc1cccc(-c2nnc3n2CCCC3)c1)NCc1ccccc1 -4.92%, Cn1cc(CN2C[C@@H]3C[C@H](C2)c2ccc(NC(=O)COc4ccccc4)c(=O)n2C3)c2ccccc21 5.52%, Cc1noc(C)c1[S+](=O)([O-])N1CCn2ncc(C(=O)NCc3ccc(Cl)nc3)c2C1 7.92%, CC(C)(C)c1cc(CC2(NCc3ccc(Cl)cc3)COC2)no1 15.3% [at 57.5 µM], Cc1ccc(CN2CCCCC23Cc2ccccc2CNC3=O)cc1C (stereo not drawn) 1.96%, CN(C)c1ccc(C(=O)NC[C@H]2O[C@@H](CO)[C@@H](O)[C@H]2N(C)CCc2ccccc2)cc1 8.31%, CC(=O)N1CCCC(c2[nH]ccc2C(=O)NCc2cc(C)nn2C)C1 (stereo not drawn) 1.91%, O=C(NCc1ccccn1)C1CCN(Cc2cc3n(n2)CCCNC3)CC1 4.62%, CCn1cnnc1CC1CCN(C(=O)c2[nH]nc3c2COc2ccccc2-3)CC1 8.89%, CC(=O)NC1(C)CCN(Cc2ccccc2-c2ccccc2Oc2ccccc2)C1 (stereo not drawn) 16.6% [at 57.5 µM], CC(C)Nc1ncc(C(=O)NC2CCCN(CCc3ccccc3)C2)cn1 (stereo not drawn) 3.34%, CCn1cnnc1CC1CCN(C(=O)C2CCN(Cc3nc(-c4cccc(C)c4)oc3C)CC2)CC1 40.7%, Cc1cc(C(=O)N2CCC(Cc3nc(-c4ccccc4)n[nH]3)C2)n(C)n1 (stereo not drawn) -0.155%, CC(C)CNC(=O)N(C)C1CCc2nn(C)c(=O)n2CC1 (stereo not drawn) 9.39%, CN1c2cccnc2CN(C2CCC(CO)CC2)CC[C@H]1CO (stereo partly drawn) -1.27% [at 57.5 µM], COc1ccc(-c2noc(-c3cccn3CC(=O)Nc3cccc(Cl)c3C)n2)cc1F -3.31%, COc1cccc(Nc2cc3c(cn2)CN(Cc2cccnc2)CCN3)c1 13.5% [at 57.5 µM], CCOC(=O)c1cn(C2CN(S(=O)(=O)Cc3ccccc3)C2)nn1 5.99%, CCN1c2cc(C(=O)NCCc3ccccc3)ccc2C(=O)N2CCCCCC21 (stereo not drawn) 0.863%, O=C(c1cccc(OC2CN(C3CCSCC3)C2)c1)N1CCCC1 -6.71%, Cc1nn(CC(=O)NCCCN2CCCCC2)c(=O)c2nc(-c3ccccc3)sc12 4.21%, O=[S+]([O-])(c1cccs1)N1CCCN(c2nc3ncccc3o2)CC1 24.5%, COCCNC(=O)C(NC(=O)c1cccc(OC)c1)C1CCN(C(=O)COC)CC1 (stereo not drawn) -0.268%, CCCCCC(=O)N1C[C@H](C(=O)NC)[C@H]2c3ccccc3N(CC3CC3)C(=O)[C@]21C -0.634% [at 16.1 µM], COc1cccc(Nc2ccnc(-c3nnc(C)n3C3CCCCC3)c2)c1 14.6% [at 57.5 µM], COc1ccc2[nH]c(=O)c(CCC(=O)NC(C)c3cn(C)nc3C)cc2c1 (stereo not drawn) 7.95%, Cn1cnc(S(=O)(=O)N[C@H]2CCN(C(=O)c3ccco3)[C@H](C(=O)N[C@@H](Cc3cccs3)C(N)=O)C2)c1 4.77%, Cc1cc(CN2CCc3nc(C(C)C)nc(-c4ccc(Cl)cc4)c3CC2)no1 -2.53%, Cc1ocnc1C(=O)N1CCC2(CC1)CN(CC(C)c1ccccc1)C(=O)O2 (stereo not drawn) 2.24%, O=C(CCc1nnn2c1CN(S(=O)(=O)c1ccccc1)CC2)NCc1ccccc1 0.831%, CC(=O)N1CCC(CC(=O)N2C[C@@H](Oc3ccccc3)C[C@H]2C(=O)N2CCOCC2)CC1 13.6%, Cc1n[nH]c(C)c1C(N)C(=O)NCc1ccccc1-n1ccnc1C (stereo not drawn) -0.438%, Cc1cc(C(=O)N2CCC(OCC3CC3)C2)n(C)n1 (stereo not drawn) -16.3%, CN(CC1(C)CCOCC1)C(=O)c1ccccn1 1.44%, Cc1cc(C(=O)NC2CC(c3cc(=O)[nH]cn3)C2)cc(S(N)(=O)=O)c1C (stereo not drawn) -0.451%, OC[C@@H]1CNC[C@H]1c1nc(C2CC2)no1 -0.494%, O=C(c1coc(CN2CCN(C/C=C/c3ccccc3)CC2)n1)N1CCC[C@H]1CO -0.46%, Cc1cc(C)cc(NC(=O)N2CCC(CCc3nc(C4CCOCC4)no3)CC2)c1 -1.69%, CC(C)=CC(=O)N[C@H]1C[C@@H](C(=O)N[C@H](Cc2ccccc2)C(N)=O)N(C(=O)C=C(C)C)C1 2.83% [at 57.5 µM], COc1cccc(CCC(=O)N2CC(F)(F)C[C@H]2c2nc(C)no2)c1 -5.3%, O=[S+]1([O-])NC2(CCCN(Cc3ccsc3)C2)CNc2ccccc21 (stereo not drawn) 1.02%, CC(C)N(C)Cc1nnnn1CC(=O)N1CCC(CCn2cccn2)CC1 0.467%, Cc1nc(-c2ccc(CNC(=O)CN3CCN(c4ncccn4)CC3)cc2)no1 16.1%, COc1ccc(C(=O)NC[C@H]2Cn3ccnc3CO2)cc1 2.14% [at 77.1 µM], C[C@]1(CO)[C@H]2Cc3sc(-c4ccsc4)nc3[C@@H](CC(=O)NCc3ccco3)[C@]2(C)CC[C@H]1O 9.27%, CC(=O)Nc1ccc(OCC(=O)NCc2ccccc2C)nc1 5.71%, CN(C)Cc1nnc(C2CC(NC(=O)c3cc(-c4cccn4C)n[nH]3)C2)n1C (stereo not drawn) 7.92%, COc1ccc(-c2cc(C(=O)NCC3CC3)c3c(C4CCCN4)noc3n2)cc1 (stereo not drawn) -2.32%, CCn1c(CO)nnc1C1CC(NC(=O)c2ccc3nc(C)oc3c2)C1 (stereo not drawn) 0.377%, CN1C(=O)CO[C@H]2CN(c3ccc(C#N)cn3)C[C@H]21 17.9% [at 77.1 µM], O=C1CC2(CCN([S+](=O)([O-])c3cccc(C(F)(F)F)c3)CC2)Oc2ccccc21 -0.493%
